# Screen size: about 360,000 compounds; about 7,500 (2.1%) were called active. Inconclusive means that the source gave no clear call. Such entries were picked first, then a sample of the others. Calls follow the shape of the dose curve; as a rule, active = well fitted inhibition curve with a large enough effect; inconclusive = small, poorly fitted or top-dose-only effect, or effect the other way; inactive = flat fitted curve, though single readings scatter. Potencies of inconclusive entries are doubtful fits and often do not repeat.
# Assay: Nrf2 qHTS screen for inhibitors; also: nearly all actives have a fitted effect of over 60% in size
# Details: A549 ARE-Fluc reporter, luciferase luminescence, 18-24 h; activity change, negative = inhibition: at 46 µM (top of the series)
# How it was run: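 Nrf2 activity is the BugLite luminescence, read 15 min after reagent at room temperature, following CellTiter-Fluor cytotoxicity readout (30 min, 37C). Compound titrations were applied for 18-24 h to 5000 A549 ARE_Fluc cells/well in 5% FBS OPTI-MEM.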
# % is scaled to controls: 0 for no effect and ±100 for the full control effect; potency is read from the fitted curve at half-maximal effect.
Compound,Potency,"activity change, negative = inhibition"
Cc1nc(NC(=S)NC(=O)c2ccccc2)sc1C,"inconclusive: 9.2 µM [activator, partial curve]",
Cc1ccc2nc(SCC(=O)NC3CCCC3)[nH]c2c1,"inconclusive: 29.1 µM [falling, single point]",
O=C(c1cccs1)c1ccc(-c2cccs2)s1,"inconclusive: 4.61 µM [activator, partial curve]",
Cc1cc(=O)oc2cc(OCC(=O)N3CCN(C(=O)C4COc5ccccc5O4)CC3)c(Cl)cc12 (configuration not stated),"inconclusive: 23.1 µM [falling, partial curve]",
O=C1NC(c2ccco2)Nc2ccccc21 (configuration not stated),,inactive: -19.3%
Cc1ccc(C(=O)NNC(=O)CSc2nnc3c(n2)[nH]c2ccc(C)cc23)cc1,"inconclusive: 4.61 µM [falling, partial curve, poor fit]",
O=C(NCC1COc2ccccc2O1)c1cccs1 (configuration not stated),"inconclusive: 13 µM [activator, partial curve]",
O=C(COc1ccccc1Br)Nc1ccccc1C(F)(F)F,"inconclusive: 18.4 µM [activator, single point]",
COc1ccc(CC(=O)O/N=C(\N)c2ccccc2)cc1OC,"inconclusive: 23.1 µM [activator, single point]",
Cc1nn(-c2ccccc2)c(Cl)c1/C=N/NC(=O)c1nn(C)cc1[N+](=O)[O-],"inconclusive: 4.61 µM [activator, partial curve]",
Cc1ccc(NC(=O)N/C=C/c2ccco2)c(C)c1,,inactive: 14.7%
Cn1c(CNc2ccccc2)cc(=O)n(C)c1=O,,inactive: -0.617%
CC1CC(C)CN(CCCNC(=O)c2ccc3c(c2)N(Cc2ccccc2)C(=O)c2ccccc2S3=O)C1 (configuration not stated),,inactive: -6.7%
CCOc1ccc(NC(=O)Cn2ncc3ccccc32)cc1,"inconclusive: 2.06 µM [activator, partial curve]",
COc1ccc(C(=O)Nc2ccccc2C)cc1S(=O)(=O)N1CCOCC1,"inconclusive: 16.4 µM [falling, single point]",
COc1ccc(Cl)cc1C(=O)NNC(=O)CSc1nncn1C,"inconclusive: 5.8 µM [activator, partial curve]",
CSc1cccc(NC(=O)CN2C(=O)COc3ccc(S(=O)(=O)N4CCC(C)CC4)cc32)c1,"inconclusive: 29.1 µM [falling, single point]",
Cc1ccc(C)c(NC(=O)Cn2ccn(-c3ccc(F)cc3)c(=O)c2=O)c1,"inconclusive: 29.1 µM [activator, single point]",
CCn1c(=O)c2cc(C(=O)NC(C)C)sc2c2ccccc21,"inconclusive: 1.64 µM [falling, full curve]",
COc1cc2ncnc(N(C)Cc3csc(C)n3)c2cc1-c1ccc2c(c1)OCO2,"inconclusive: 29.1 µM [falling, partial curve, poor fit]",
O=C(CN1C(=O)CC(c2ccco2)Sc2ccccc21)Nc1ccccc1F (configuration not stated),,inactive: -7.19%
COc1ccc(C(=O)c2ccc([N+](=O)[O-])cc2Cl)cc1,"inconclusive: 18.4 µM [falling, single point]",
Cc1sc2nc(CN(C(=O)c3cccs3)C3CCCC3)[nH]c(=O)c2c1C,"inconclusive: 18.4 µM [falling, single point]",

Compound,Potency,"activity change, negative = inhibition"
Cc1ccc(C)c(-n2c3nc(=O)[nH]c(=O)c-3cc3cc([N+](=O)[O-])ccc32)c1,"inconclusive: 14.6 µM [falling, partial curve, poor fit]",
O=C1[C@@H](c2ccccc2)[C@@H](c2ccccc2)N1c1cccnc1,,inactive: -8.38%
C=CCNC(=S)Nc1cc(C)ccn1,"inconclusive: 29.1 µM [falling, single point]",
Cc1sc2nc(SCC(=O)N3CCCC3)[nH]c(=O)c2c1C,"inconclusive: 23.1 µM [falling, partial curve, poor fit]",
COc1ccc(Nc2ccnc(Nc3ccc(OC)cc3)n2)cc1,"inconclusive: 3.66 µM [activator, single point]",
CCOC(=O)/C(C#N)=C\c1cc(C)n(-c2ccccc2)c1C,"inconclusive: 0.411 µM [activator, full curve]",
COC(=O)Cn1nnc2c(cnn2-c2ccccc2)c1=O,"inconclusive: 25.9 µM [activator, single point]",
Cc1cc(C)c2sc(NC(=O)c3ccc(N4C(=O)CCC4=O)cc3)nc2c1,"inconclusive: 29.1 µM [falling, single point]",
O=C(c1ccc(Oc2ccc(Cl)cc2)c([N+](=O)[O-])c1)N1CCCC1,"inconclusive: 23.1 µM [falling, single point]",
CCOCc1cnc(C)nc1NCC(=O)c1c(C)[nH]c2cc(C)ccc12,"inconclusive: 18.4 µM [falling, single point]",
CCOC(=O)C1Cn2c(nc3c(c2=O)C2(CCCC2)Cc2ccccc2-3)S1 (configuration not stated),"inconclusive: 14.6 µM [falling, single point]",
CC1Cc2ccccc2N1C(=O)CCS(=O)(=O)c1cccs1 (configuration not stated),"inconclusive: 29.1 µM [activator, partial curve, poor fit]",
Cc1ccc(C(=O)Nc2ccc(S(=O)(=O)N3CCOCC3)cc2)cc1Br,"inconclusive: 9.2 µM [falling, partial curve]",
O=C(c1ccc(S(=O)(=O)NCc2ccco2)cc1)N1CCCC1,,inactive: -4.78%
COc1ccc(NC(=O)c2cccc(N3C(=O)C4C5C=CC(C6CC56)C4C3=O)c2)c(OC)c1 (configuration not stated),"inconclusive: 32.6 µM [falling, single point]",
CC(=O)Nc1ccc(S(=O)(=O)NC2(C(F)(F)F)C(=O)Nc3c2c(=O)[nH]c(=O)n3Cc2cccnc2)cc1 (configuration not stated),"inconclusive: 6.51 µM [activator, single point]",
Cc1ccc(-c2onc(C)c2C)cc1S(=O)(=O)N1CCOc2ccccc21,"inconclusive: 20.6 µM [falling, single point]",
CCC(C)NC(=O)Cn1c(-c2cccs2)cc2cc(Cl)ccc21 (configuration not stated),,inactive: 7.09%
CN(C)CCOc1ccc(C(C)(C)c2ccccc2)cc1,,inactive: 4.12%
O=C(Cn1nnc(-c2ccc(F)cc2)n1)Nc1cccc(S(=O)(=O)N2CCCC2)c1,"inconclusive: 29.1 µM [falling, single point]",
COc1cc(OC)cc(C(=O)NC(C(=O)Nc2ccc3c(c2)CCC3)C(C)C)c1 (configuration not stated),"inconclusive: 0.0731 µM [falling, full curve]",
CC1=NN(C(N)=S)C(=O)C1N=Nc1cccc(C(=O)O)c1 (configuration not stated),,inactive: 3.47%
O=C(Nc1ccc(N2CCOCC2)cc1)c1nc2ccccc2s1,"inconclusive: 3.26 µM [activator, full curve]",

Compound,Potency,"activity change, negative = inhibition"
Cc1ccc(C(=O)NC(=S)NCc2cccnc2)cc1,"inconclusive: 16.4 µM [falling, partial curve, poor fit]",
CC(c1nc2ccccc2c(=O)[nH]1)N(C)CCOc1ccc(Cl)cc1 (configuration not stated),,inactive: 0.376%
Cn1c2cc(S(C)=O)sc2c2cnn(Cc3ccccc3F)c(=O)c21 (configuration not stated),,inactive: -14%
Cc1ccc(NC(=O)c2cnn(-c3ccccc3)c2C)cc1,"inconclusive: 29.1 µM [falling, single point]",
Cc1ccc(C(CC(=O)Nc2ccc(F)c(Cl)c2)N2Cc3ccccc3C2=O)cc1 (configuration not stated),"inconclusive: 1.03 µM [activator, full curve, poor fit]",
COc1cccc(NC(=O)N(Cc2c[nH]c3ccccc23)C2CCCCC2)c1,"inconclusive: 9.2 µM [activator, partial curve, poor fit]",
Cc1nc(-c2ccc(S(=O)(=O)N3CCN(C(c4ccccc4)c4ccccc4)CC3)s2)cs1,,inactive: 3.19%
COc1cccc(CNCCSc2nnnn2C)c1OCc1ccc(F)cc1,,inactive: -26.7%
NC(=O)c1cccnc1Oc1ccc(Cl)cc1,"inconclusive: 8.2 µM [falling, partial curve]",
CCOCCCn1c(SCC(=O)Nc2ccccc2OC)nc2ccccc2c1=O,"inconclusive: 18.4 µM [falling, single point]",
Cc1cc(C(=O)NNC(=O)c2ccccc2O)c(C)o1,"inconclusive: 23.1 µM [falling, single point]",
COc1ccc(C2C=C3CNS(=O)(=O)C3CC2OC(=O)c2cccs2)cc1 (configuration not stated),"inconclusive: 29.1 µM [falling, partial curve, poor fit]",
CC(C)c1ccc(NC(=O)CCn2c(=O)c3cccn3c3ccccc32)cc1,active: 10.3 µM,
COc1cccc2sc(=NC(=O)CCS(=O)(=O)c3ccc(C)cc3)n(C)c12,"inconclusive: 25.9 µM [falling, partial curve, poor fit]",
CC(C)(C)S(=O)N1Cc2ccc(CO)cc2[C@@H]1CCO (some centres not stated),"inconclusive: 9.2 µM [activator, partial curve, poor fit]",
COc1cc(C(=O)Nc2nonc2-c2ccc(Cl)cc2)cc(OC)c1OC,"inconclusive: 32.6 µM [falling, partial curve, poor fit]",
C#CCOCCOCCOCCNc1nc(N2CCN(C(=O)Cn3cc(CCCN=C(N)N)nn3)CC2)nc(N2CCN(C(=O)[C@H](CCCCN)n3cc(CC(C)O)nn3)CC2)n1 (some centres not stated),,inactive: 4.83%
O=C(/C=C/c1cccs1)NC(=S)Nc1ccccc1,"inconclusive: 18.4 µM [activator, single point]",
C=CCc1ccc(OCC(O)COCC)c(OC)c1 (configuration not stated),"inconclusive: 4.61 µM [activator, full curve]",
Cc1ccc(NC(=S)NCC(O)c2ccccc2)c(C)c1 (configuration not stated),"inconclusive: 16.4 µM [activator, partial curve, poor fit]",
CCc1ccc2oc(C(=O)Nc3nonc3C)c(C)c2c1,"inconclusive: 2.31 µM [activator, partial curve]",

# Three compounds picked at random from those above:
Compound,Potency,"activity change, negative = inhibition"
O=C(NCC1COc2ccccc2O1)c1cccs1 (configuration not stated),"inconclusive: 13 µM [activator, partial curve]",
Cn1c(CNc2ccccc2)cc(=O)n(C)c1=O,,inactive: -0.617%
COc1cccc(CNCCSc2nnnn2C)c1OCc1ccc(F)cc1,,inactive: -26.7%
